Measurements reported in PubChem BioAssay AID1159584 (Peter MacCallum Cancer Centre, 2016).

- Screen: 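Knock-downs that harm CDH1-null cells more than parental MCF10A cells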 (primary screen)
- Cell system: human MCF10A breast epithelial cells, parental and CDH1-null
- Reagent: siRNA against human genes
- Measurement: 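Cell viability by CellTiter-Glo ATP luminescence, each line scaled to the mean of mock wells across plates, then CDH1-null over parental ratio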
- Scale: CDH1-null / parental viability ratio: higher = CDH1-null cells survive relatively better than parental; CDH1-null viability vs mock: higher = more viable CDH1-null cells
The whole screen tested about 18,000 reagents; below is a part drawn at random. Not all columns of the deposit are shown. Not given: the amount of reagent, the time to read-out.

The opening 5 entries, ahead of the listing:
no.	Target gene	CDH1-null / parental viability ratio	CDH1-null viability vs mock (fraction of mock)
1	KAT6A (GeneID 7994)	0.81	0.8
2	WBP2 (GeneID 23558)	1.14	1.12
3	GSC (GeneID 145258)	0.74	0.52
4	GPR45 (GeneID 11250)	0.91	0.82
5	SULT1C4 (GeneID 27233)	1.15	0.9

The list itself, from the start:
no.	Target gene	CDH1-null / parental viability ratio	CDH1-null viability vs mock (fraction of mock)
1	KAT6A (GeneID 7994)	0.81	0.8
2	WBP2 (GeneID 23558)	1.14	1.12
3	GSC (GeneID 145258)	0.74	0.52
4	GPR45 (GeneID 11250)	0.91	0.82
5	SULT1C4 (GeneID 27233)	1.15	0.9
6	CLCN6 (GeneID 1185)	1.2	0.97
7	GPX5 (GeneID 2880)	0.98	0.56
8	ZNF398 (GeneID 57541)	0.99	0.92
9	SENP3 (GeneID 26168)	1.15	0.63
10	SPEF2 (GeneID 79925)	0.95	0.82
11	SLC39A8 (GeneID 64116)	0.81	0.55
12	SGO2 (GeneID 151246)	0.93	0.75
13	MID1IP1 (GeneID 58526)	1	0.66
14	STYXL1 (GeneID 51657)	1.71	0.82
15	OR51G1 (GeneID 79324)	0.95	0.89
16	LMCD1 (GeneID 29995)	1.26	0.91
17	MEPCE (GeneID 56257)	0.92	0.46
18	MRPL14 (GeneID 64928)	1.02	0.84
19	SLC22A17 (GeneID 51310)	0.98	0.88
20	CRYL1 (GeneID 51084)	1.12	0.47
21	IQCC (GeneID 55721)	0.87	0.84
22	COL24A1 (GeneID 255631)	1.02	0.63
23	PRKD2 (GeneID 25865)	0.79	0.6
24	RPRD1A (GeneID 55197)	0.89	0.84
25	LIPT1 (GeneID 51601)	0.99	0.79
26	PRR22 (GeneID 163154)	0.96	0.74
27	CDC42 (GeneID 998)	1.09	0.76
28	SPATS2 (GeneID 65244)	1.01	0.77
29	DNAI2 (GeneID 64446)	1.38	0.72
30	MFSD8 (GeneID 256471)	1.01	0.84
31	DNAJB11 (GeneID 51726)	1.22	0.71
32	SPON1 (GeneID 10418)	1.13	0.76
33	SUB1 (GeneID 10923)	0.86	0.76
34	SYNDIG1 (GeneID 79953)	1.1	1.1
35	PCDH17 (GeneID 27253)	0.94	0.73
36	ACTRT2 (GeneID 140625)	1.06	0.76
37	ZNF697 (GeneID 90874)	0.95	0.63
38	EP400 (GeneID 57634)	1.55	0.62
39	C1orf87 (GeneID 127795)	0.76	0.52
40	KPNA5 (GeneID 3841)	1.02	0.63
41	DUSP11 (GeneID 8446)	1.41	0.9
42	KLK2 (GeneID 3817)	1.17	0.94
43	SMIM14 (GeneID 201895)	0.96	0.54
44	UNC119B (GeneID 84747)	0.87	0.88
45	ATXN10 (GeneID 25814)	0.9	0.66
46	PLEKHG6 (GeneID 55200)	0.76	0.68
